In patent US20180237508A1:
No constants are given. Whether binding was seen depends on the method and setting. Some entries that bind do so weakly or less than the wild type.

Protein sequences, listed by entry. Tags and fused reporters are not part of them. Residues count along the entry.
UniProt P05787, residues 1-393: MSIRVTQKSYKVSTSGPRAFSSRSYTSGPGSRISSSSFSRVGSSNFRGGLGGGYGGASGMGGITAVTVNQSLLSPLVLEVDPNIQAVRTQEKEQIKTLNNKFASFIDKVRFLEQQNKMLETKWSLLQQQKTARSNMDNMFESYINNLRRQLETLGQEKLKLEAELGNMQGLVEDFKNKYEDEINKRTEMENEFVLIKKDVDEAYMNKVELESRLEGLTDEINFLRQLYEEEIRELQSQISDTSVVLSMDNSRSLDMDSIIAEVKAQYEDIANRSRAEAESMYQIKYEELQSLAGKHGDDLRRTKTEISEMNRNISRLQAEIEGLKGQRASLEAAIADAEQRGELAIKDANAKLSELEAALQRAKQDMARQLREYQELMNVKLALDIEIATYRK

Target: C-terminal truncated form of human CK8 protein (CK8-C) (human) (UniProt P05787)
Test: western blot, Isreco-1 lysate, mD-A10 1 ug/mL

B1: Murine monoclonal antibody D-A10 (antibody, V domains shown)
VH: EVQLLETGGGLVQPGGSRGLSCEGSGFTFSGFWMSWVRQTPGKTLEWIGDINSDGSAIKYAPSIKDRFTIFRDNDKSTLYLQMSNVRSEDTATYFCIAHYSGGGFAYWGQGTSVTVSS
VL: NIVMTQAAPSVPVTPGESVSISCRSSKSLLYSNGNTYLYWFLQRPGQSPQRLIYYMSNLASGVPDRFSGRGSGTDFTLRISRVEAEDVGVYYCMQSLEYPFTFGGGTKLEIK
- binding: binds
